These are yes or no findings as the source states them, for the method shown. In cells and extracts the contact can be indirect. Some binding calls cover weakened binding; strength is not graded here.
Key:
[1] = biological target: FLAG-tagged ESR1 mutant (Y537S) (human) (UniProt P03372); experiment: co-IP with anti-ERα antibody from MCF-7 cells transfected with FLAG-tagged ESR1 Y537S
[2] = biological target: FLAG-tagged ESR1 mutant (Y537S) (human) (UniProt P03372); experiment: co-IP with anti-ERα antibody from MCF-7 cells transfected with FLAG-tagged ESR1 Y537S, no estrogen

By UniProt entry, the sequences of proteins in these tests, tags left out. Where a name states a change or a piece, a line headed by the entry shows the natural chain unless it says otherwise. Residues count along the entry.
UniProt P03372: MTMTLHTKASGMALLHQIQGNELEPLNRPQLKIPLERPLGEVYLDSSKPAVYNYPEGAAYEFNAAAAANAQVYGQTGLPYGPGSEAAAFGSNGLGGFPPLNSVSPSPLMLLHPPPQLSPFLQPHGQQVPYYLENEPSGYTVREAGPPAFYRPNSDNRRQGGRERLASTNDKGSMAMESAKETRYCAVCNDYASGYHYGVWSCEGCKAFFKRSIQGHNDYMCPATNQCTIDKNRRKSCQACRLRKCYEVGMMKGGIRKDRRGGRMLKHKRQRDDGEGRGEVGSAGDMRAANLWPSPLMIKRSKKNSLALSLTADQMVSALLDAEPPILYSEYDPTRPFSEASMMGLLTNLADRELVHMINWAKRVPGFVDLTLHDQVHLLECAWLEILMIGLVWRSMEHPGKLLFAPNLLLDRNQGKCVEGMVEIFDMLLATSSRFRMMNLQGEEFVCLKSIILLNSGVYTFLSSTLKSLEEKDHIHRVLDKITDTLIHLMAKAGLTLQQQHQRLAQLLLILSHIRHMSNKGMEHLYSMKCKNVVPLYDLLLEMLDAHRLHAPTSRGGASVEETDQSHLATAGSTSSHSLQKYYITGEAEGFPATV
UniProt P27986, residues 2-724: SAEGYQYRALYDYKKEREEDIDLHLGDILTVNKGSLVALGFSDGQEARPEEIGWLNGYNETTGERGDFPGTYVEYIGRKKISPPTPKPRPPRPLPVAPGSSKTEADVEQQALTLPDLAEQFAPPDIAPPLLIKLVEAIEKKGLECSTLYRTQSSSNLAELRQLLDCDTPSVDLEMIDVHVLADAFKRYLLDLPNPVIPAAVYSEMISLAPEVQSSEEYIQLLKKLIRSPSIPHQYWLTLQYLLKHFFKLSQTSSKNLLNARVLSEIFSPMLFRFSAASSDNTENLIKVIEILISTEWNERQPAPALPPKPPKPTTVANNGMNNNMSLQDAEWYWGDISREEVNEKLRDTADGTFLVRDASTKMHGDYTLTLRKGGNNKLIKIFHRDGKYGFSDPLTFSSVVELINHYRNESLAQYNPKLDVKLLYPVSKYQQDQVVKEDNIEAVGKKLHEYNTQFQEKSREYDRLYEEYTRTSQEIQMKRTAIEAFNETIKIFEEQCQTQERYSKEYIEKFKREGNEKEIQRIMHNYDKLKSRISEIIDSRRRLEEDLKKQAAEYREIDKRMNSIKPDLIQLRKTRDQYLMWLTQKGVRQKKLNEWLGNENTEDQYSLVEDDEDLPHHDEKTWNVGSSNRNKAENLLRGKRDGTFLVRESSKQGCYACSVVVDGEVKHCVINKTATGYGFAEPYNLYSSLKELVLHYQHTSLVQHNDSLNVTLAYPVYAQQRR

- binding [1]: binds
- binding [2]: binds
Substance: PI3K (phosphatidylinositol 3-kinase) (from UniProt P27986 2-724) (enzyme)

Source: US20200255474A1
